In the supplement of paper PMC10849652:
Some of the results follow.

Protein sequences, listed by entry. Tags and fused reporters are not part of them. Lines headed by an entry give the natural chain unless they say otherwise; changes in a name come on top.
UniProt Q92664: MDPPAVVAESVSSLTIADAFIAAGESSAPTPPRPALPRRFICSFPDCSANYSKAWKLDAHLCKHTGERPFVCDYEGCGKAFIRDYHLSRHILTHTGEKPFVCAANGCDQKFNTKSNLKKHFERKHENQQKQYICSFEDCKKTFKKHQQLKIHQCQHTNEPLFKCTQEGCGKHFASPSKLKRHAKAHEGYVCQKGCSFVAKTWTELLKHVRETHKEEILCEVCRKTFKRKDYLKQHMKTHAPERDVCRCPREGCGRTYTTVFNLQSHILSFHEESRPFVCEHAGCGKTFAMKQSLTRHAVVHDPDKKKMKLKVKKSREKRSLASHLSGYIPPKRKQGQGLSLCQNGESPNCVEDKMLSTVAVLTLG
UniProt P69892: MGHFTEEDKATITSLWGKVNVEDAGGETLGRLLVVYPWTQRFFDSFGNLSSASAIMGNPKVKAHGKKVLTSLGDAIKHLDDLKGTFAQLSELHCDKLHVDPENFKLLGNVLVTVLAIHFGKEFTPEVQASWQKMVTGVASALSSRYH
UniProt P52655, whole entry, looked up: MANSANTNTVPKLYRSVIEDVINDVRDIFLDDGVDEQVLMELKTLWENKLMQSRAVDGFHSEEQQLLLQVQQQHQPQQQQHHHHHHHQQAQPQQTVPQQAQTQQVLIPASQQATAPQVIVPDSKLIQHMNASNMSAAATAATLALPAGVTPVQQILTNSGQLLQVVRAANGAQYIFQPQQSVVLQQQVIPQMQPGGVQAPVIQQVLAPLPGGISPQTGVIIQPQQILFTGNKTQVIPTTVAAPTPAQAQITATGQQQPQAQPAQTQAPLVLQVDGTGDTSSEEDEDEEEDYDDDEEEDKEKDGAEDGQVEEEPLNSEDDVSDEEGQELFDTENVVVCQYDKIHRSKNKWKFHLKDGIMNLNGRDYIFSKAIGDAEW
UniProt P40939: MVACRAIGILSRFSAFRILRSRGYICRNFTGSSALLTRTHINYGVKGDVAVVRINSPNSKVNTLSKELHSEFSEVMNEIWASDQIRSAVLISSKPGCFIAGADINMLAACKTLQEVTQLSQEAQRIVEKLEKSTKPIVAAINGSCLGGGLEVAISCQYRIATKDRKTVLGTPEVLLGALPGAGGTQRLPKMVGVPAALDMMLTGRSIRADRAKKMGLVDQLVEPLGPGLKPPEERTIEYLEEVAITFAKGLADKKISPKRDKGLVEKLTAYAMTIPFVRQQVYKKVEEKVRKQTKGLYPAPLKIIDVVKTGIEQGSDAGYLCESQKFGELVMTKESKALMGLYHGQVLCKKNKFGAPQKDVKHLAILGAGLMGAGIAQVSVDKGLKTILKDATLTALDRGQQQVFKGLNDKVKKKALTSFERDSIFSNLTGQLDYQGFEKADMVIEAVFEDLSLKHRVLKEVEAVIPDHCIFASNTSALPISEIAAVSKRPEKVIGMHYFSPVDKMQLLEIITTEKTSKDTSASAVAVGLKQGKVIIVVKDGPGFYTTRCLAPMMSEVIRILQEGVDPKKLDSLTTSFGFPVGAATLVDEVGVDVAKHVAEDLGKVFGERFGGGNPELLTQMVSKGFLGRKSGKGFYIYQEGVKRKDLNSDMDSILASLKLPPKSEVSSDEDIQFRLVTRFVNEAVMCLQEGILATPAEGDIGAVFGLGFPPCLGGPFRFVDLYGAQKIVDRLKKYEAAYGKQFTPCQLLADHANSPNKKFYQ
UniProt P00390: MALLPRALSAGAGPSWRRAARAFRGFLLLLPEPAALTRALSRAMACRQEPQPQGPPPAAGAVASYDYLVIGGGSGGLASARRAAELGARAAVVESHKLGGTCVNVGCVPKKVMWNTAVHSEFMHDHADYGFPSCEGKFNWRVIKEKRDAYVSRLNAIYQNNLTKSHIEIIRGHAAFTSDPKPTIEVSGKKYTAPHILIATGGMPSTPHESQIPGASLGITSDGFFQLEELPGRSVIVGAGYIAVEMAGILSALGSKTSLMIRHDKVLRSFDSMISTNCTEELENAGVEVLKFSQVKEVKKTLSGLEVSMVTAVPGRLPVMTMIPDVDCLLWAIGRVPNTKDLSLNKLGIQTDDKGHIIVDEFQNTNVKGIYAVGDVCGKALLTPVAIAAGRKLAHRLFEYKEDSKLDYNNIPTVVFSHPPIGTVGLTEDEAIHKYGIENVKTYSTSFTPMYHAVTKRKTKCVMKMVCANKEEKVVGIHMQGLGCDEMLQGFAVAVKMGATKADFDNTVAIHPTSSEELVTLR
UniProt Q9UBQ7: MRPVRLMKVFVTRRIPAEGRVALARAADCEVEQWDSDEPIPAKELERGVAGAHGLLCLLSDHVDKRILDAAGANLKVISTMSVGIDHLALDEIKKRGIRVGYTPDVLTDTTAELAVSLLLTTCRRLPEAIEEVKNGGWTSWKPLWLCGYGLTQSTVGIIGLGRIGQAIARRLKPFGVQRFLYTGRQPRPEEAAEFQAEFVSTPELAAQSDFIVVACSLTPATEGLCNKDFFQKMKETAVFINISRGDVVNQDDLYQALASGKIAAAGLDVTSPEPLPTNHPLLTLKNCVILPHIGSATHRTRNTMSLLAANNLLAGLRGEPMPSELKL
UniProt Q12849: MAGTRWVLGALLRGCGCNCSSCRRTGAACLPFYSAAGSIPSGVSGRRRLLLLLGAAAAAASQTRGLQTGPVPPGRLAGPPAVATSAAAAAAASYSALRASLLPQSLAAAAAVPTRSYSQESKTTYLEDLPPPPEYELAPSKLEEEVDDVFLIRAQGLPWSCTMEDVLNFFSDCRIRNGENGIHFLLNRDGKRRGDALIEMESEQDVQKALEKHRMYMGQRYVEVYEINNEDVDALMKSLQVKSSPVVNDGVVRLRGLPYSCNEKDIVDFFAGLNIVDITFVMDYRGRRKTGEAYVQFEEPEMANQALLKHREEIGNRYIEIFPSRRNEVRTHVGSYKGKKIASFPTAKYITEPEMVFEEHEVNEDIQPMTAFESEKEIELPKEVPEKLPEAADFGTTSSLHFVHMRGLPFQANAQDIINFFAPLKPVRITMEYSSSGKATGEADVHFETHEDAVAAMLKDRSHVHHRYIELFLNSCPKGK
UniProt Q8N442: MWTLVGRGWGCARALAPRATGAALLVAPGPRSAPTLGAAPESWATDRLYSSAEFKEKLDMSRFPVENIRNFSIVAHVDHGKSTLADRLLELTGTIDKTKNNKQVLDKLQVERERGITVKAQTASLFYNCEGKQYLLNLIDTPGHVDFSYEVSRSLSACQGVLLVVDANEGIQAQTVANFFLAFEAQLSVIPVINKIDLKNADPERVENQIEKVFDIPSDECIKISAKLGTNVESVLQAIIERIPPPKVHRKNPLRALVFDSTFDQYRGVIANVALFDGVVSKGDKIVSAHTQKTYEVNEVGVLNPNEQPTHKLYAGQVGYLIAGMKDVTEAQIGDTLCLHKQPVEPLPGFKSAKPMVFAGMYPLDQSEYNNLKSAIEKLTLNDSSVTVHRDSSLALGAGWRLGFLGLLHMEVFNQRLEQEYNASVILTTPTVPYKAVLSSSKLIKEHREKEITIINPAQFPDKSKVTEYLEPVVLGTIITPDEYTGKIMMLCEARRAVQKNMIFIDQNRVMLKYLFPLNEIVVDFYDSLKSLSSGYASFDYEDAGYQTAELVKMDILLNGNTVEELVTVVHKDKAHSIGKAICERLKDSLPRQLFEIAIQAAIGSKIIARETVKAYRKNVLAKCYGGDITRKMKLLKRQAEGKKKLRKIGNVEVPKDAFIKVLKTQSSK
UniProt O14929: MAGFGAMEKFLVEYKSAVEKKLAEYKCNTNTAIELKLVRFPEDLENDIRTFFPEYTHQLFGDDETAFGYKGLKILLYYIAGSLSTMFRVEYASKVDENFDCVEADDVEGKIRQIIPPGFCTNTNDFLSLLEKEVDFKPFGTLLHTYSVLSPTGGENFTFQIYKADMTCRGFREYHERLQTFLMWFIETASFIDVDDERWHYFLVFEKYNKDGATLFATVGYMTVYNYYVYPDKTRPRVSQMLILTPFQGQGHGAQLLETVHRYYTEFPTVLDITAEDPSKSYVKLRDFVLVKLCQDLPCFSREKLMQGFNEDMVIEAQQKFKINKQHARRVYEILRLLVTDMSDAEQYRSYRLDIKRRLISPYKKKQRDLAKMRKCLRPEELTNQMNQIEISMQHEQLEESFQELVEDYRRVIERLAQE
UniProt Q00403, whole entry, looked up: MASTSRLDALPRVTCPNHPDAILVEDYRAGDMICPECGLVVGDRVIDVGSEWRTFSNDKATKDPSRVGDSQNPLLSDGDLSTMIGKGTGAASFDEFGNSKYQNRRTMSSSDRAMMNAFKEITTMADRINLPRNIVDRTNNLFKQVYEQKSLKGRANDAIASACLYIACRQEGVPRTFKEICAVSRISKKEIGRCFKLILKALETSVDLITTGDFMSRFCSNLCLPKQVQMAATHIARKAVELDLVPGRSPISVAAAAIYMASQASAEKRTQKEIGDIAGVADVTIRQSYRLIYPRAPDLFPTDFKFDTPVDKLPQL
UniProt O94927: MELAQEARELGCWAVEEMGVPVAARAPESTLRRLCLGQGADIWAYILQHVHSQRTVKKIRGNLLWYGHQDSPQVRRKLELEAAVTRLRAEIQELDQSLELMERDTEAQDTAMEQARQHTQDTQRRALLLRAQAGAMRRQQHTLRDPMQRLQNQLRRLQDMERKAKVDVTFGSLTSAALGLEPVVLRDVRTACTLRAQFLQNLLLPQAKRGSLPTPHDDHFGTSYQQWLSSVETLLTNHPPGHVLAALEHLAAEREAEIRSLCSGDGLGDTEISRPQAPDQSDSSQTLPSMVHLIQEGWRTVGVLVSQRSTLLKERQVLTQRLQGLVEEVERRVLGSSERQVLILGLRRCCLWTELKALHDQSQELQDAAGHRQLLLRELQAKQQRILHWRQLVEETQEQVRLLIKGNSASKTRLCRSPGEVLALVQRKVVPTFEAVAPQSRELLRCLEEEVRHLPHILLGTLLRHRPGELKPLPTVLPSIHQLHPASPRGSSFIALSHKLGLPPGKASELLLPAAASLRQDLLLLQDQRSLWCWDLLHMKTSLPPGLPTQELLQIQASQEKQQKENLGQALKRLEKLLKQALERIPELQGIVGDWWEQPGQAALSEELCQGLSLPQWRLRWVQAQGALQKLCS
UniProt P13807: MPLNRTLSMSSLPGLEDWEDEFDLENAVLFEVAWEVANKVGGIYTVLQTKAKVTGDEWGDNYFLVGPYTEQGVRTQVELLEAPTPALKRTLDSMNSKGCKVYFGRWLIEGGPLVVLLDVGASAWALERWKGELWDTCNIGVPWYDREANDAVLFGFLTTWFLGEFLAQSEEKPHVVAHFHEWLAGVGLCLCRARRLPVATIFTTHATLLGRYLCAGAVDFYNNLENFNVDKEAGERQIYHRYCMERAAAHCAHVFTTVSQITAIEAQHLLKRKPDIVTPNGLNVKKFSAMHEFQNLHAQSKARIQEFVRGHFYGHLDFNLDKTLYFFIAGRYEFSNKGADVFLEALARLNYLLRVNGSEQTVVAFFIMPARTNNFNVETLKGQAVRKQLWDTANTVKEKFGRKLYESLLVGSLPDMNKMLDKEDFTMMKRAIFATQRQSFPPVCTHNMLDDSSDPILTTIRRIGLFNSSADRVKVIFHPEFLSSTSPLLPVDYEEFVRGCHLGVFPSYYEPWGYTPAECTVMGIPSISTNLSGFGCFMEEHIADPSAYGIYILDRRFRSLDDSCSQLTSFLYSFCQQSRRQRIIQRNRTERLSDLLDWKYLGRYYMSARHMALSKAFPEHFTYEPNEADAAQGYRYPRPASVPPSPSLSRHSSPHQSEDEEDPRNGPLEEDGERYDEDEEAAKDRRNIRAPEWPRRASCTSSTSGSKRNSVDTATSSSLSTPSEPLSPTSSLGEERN
UniProt Q4G148: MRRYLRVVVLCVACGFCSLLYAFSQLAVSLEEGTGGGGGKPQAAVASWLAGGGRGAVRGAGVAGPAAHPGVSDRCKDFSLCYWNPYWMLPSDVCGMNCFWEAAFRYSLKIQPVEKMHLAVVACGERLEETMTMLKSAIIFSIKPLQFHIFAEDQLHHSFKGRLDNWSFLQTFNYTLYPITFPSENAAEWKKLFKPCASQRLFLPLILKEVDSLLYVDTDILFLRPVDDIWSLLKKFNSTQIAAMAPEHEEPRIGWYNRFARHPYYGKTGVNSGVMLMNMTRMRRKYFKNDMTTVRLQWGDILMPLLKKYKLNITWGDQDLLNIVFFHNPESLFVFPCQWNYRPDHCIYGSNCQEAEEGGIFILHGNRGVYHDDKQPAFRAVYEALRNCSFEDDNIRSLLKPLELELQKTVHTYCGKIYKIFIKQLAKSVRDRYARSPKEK
UniProt O75791: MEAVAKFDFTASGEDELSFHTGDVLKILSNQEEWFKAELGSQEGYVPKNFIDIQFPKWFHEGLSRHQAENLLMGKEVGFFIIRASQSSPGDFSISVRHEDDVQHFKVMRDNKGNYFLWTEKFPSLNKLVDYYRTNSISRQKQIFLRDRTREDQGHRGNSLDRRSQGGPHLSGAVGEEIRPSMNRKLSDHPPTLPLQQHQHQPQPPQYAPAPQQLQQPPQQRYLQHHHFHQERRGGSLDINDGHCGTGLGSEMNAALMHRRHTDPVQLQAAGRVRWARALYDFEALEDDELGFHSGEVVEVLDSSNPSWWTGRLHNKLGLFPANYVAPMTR

How the values were obtained:
Test in all cases: log2 fold change, soluble protein after heating vs DMSO (PISA); higher = thermal stabilisation; K562 lysate, 10 uM; active = over 0.2 and 3.5 SD of the protein, either way, in both replicates (recomputed)
lapatinib = compound: CS(=O)(=O)CCNCc1ccc(-c2ccc3ncnc(Nc4ccc(OCc5cccc(F)c5)c(Cl)c4)c3c2)o1 [lapatinib]
How it was run: (§1)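 Quantification was by TMTpro 16plex LC-MS/MS with equalised channel sums, applied to the supernatant after 21,000xg for 90 min. Samples were crude K562 extract at 1 mg/mL protein in PBS pH 7.4 with 1 mM MgCl2, treated with 10 μM compound for 30 min, heated for 3 min across 48°C-58°C, pooled and brought to 0.5% NP-40 at 4°C. Values are log-two fold changes in thermal stability relative to solvent controls, from duplicates.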

pictilisib = compound: CS(=O)(=O)N1CCN(Cc2cc3nc(-c4cccc5[nH]ncc45)nc(N4CCOCC4)c3s2)CC1 [pictilisib]
How it was run: as §1

crizotinib = compound: C[C@@H](Oc1cc(-c2cnn(C3CCNCC3)c2)cnc1N)c1c(Cl)ccc(F)c1Cl [crizotinib]
How it was run: as §1

[1] = compound: C[C@H](C1=CC=C(C=C1)C(=O)NC2=C3C=CNC3=NC=C2)N
How it was run: as §1

duvelisib = compound: C[C@H](Nc1ncnc2nc[nH]c12)c1cc2cccc(Cl)c2c(=O)n1-c1ccccc1 [duvelisib]
How it was run: as §1

gandotinib = compound: Cc1cc(Nc2cc(CN3CCOCC3)c3nc(C)c(Cc4ccc(Cl)cc4F)n3n2)n[nH]1 [gandotinib]
How it was run: as §1

tozasertib = compound: Cc1cc(Nc2cc(N3CCN(C)CC3)nc(Sc3ccc(NC(=O)C4CC4)cc3)n2)n[nH]1 [tozasertib]
How it was run: as §1

doramapimod = compound: Cc1ccc(-n2nc(C(C)(C)C)cc2NC(=O)Nc2ccc(OCCN3CCOCC3)c3ccccc23)cc1 [doramapimod]
How it was run: as §1

bafetinib = compound: Cc1ccc(NC(=O)c2ccc(CN3CC[C@H](N(C)C)C3)c(C(F)(F)F)c2)cc1Nc1nccc(-c2cncnc2)n1 [bafetinib]
How it was run: as §1

[2] = compound: Cc1cccc(CC(=O)N2CCc3c2ccc(-c2cn(C)c4ncnc(N)c24)c3F)n1
How it was run: as §1

Measured: log2 fold change

HEATR5B (UniProt Q9P2D3)
inactive: lapatinib -0.018 | pictilisib -0.062 | crizotinib -0.01 | [1] -0.011 | duvelisib 0.023 | gandotinib -0.065 | tozasertib 0.019 | doramapimod 0.037 | bafetinib -0.16 | [2] 0.037

HDHD2 (UniProt Q9H0R4)
inactive: lapatinib -0.019 | pictilisib -0.023 | crizotinib 0.025 | [1] 0.017 | duvelisib 0.043 | gandotinib 0.017 | tozasertib 0.053 | doramapimod 0.004 | bafetinib 0.059 | [2] -0.042

GSPT1 isoform 2 (UniProt P15170)
inactive: lapatinib 0.055

GTF3A (UniProt Q92664)
inactive: lapatinib -0.068 | pictilisib 0.119 | crizotinib -0.099 | [1] 0.095 | duvelisib 0.077 | gandotinib -0.097 | tozasertib -0.001 | doramapimod 0.036 | bafetinib -0.075 | [2] -0.106

HBG2 (UniProt P69892)
inactive: lapatinib 0.051 | pictilisib -0.048 | crizotinib 0.011 | [1] 0.067 | duvelisib 0.004 | gandotinib -0.048 | tozasertib -0.013 | doramapimod -0.014 | bafetinib -0.037 | [2] -0.06

GTF3C4 (UniProt Q9UKN8)
inactive: lapatinib -0.017 | pictilisib -0.013 | crizotinib -0.014 | [1] 0.027 | duvelisib 0.008 | gandotinib -0.063 | tozasertib 0.034 | doramapimod 0.02 | bafetinib -0.045 | [2] 0.034

H1-3 (UniProt P16402)
inactive: lapatinib -0.018 | pictilisib 0.003 | crizotinib -0.003 | [1] 0.028 | duvelisib -0.039 | gandotinib 0.014 | tozasertib -0.016 | doramapimod -0.016 | bafetinib 0.037 | [2] -0.021

GTF2A1 (UniProt P52655)
inactive: lapatinib 0.034 | pictilisib 0.011 | crizotinib 0.055 | duvelisib 0.009 | gandotinib -0.141 | tozasertib 0.064 | doramapimod 0.028 | bafetinib 0.026 | [2] -0.111
active: [1] 0.327

HADHA (UniProt P40939)
inactive: lapatinib 0.1 | pictilisib 0.077 | crizotinib 0.063 | [1] -0.01 | duvelisib 0.037 | gandotinib 0.129 | tozasertib -0.013 | doramapimod 0.207 | bafetinib 0.032 | [2] -0.053

GSR (UniProt P00390)
inactive: lapatinib -0.029 | pictilisib -0.109 | crizotinib 0.006 | [1] -0.112 | duvelisib -0.01 | gandotinib 0.128 | tozasertib -0.023 | doramapimod -0.001 | bafetinib 0.093 | [2] 0.038

GRHPR (UniProt Q9UBQ7)
inactive: lapatinib 0.001 | pictilisib -0.023 | crizotinib -0.017 | [1] 0.189 | duvelisib 0.004 | gandotinib -0.08 | tozasertib 0.001 | doramapimod -0.033 | bafetinib 0.042 | [2] -0.122

HDAC4 (UniProt P56524)
inactive: lapatinib 0.014 | pictilisib -0.078 | crizotinib -0.007 | [1] 0.018 | duvelisib 0.025 | gandotinib 0.027 | tozasertib 0.017 | doramapimod 0.018 | bafetinib 0.024 | [2] 0.039

GSS (UniProt P48637)
inactive: lapatinib 0.004 | pictilisib -0.013 | crizotinib 0.019 | [1] -0.015 | duvelisib -0.005 | gandotinib 0.048 | tozasertib -0.006 | doramapimod 0.004 | bafetinib 0.069 | [2] -0.041

GRSF1 (UniProt Q12849)
inactive: lapatinib -0.001 | pictilisib 0.015 | crizotinib -0.031 | [1] -0.032 | duvelisib 0.006 | gandotinib 0.044 | tozasertib 0.024 | doramapimod 0.025 | bafetinib -0.041 | [2] 0.111

GTSE1 (UniProt Q9NYZ3)
inactive: lapatinib -0.072 | pictilisib -0.053 | crizotinib 0.061 | [1] -0.115 | duvelisib 0.08 | gandotinib 0.082 | tozasertib 0.036 | doramapimod -0.035 | bafetinib -0.093 | [2] -0.004

GUF1 (UniProt Q8N442)
inactive: lapatinib 0.22 | pictilisib -0.139 | crizotinib 0.018 | [1] -0.067 | duvelisib 0.049 | gandotinib -0.055 | tozasertib 0.04 | doramapimod 0.011 | bafetinib -0.061 | [2] -0.044

HAT1 (UniProt O14929)
inactive: lapatinib -0.001 | pictilisib 0.008 | crizotinib 0.003 | [1] -0.017 | duvelisib 0.012 | gandotinib -0.004 | tozasertib -0.052 | doramapimod 0.017 | bafetinib -0.016 | [2] 0.064

GTF2B (UniProt Q00403)
inactive: lapatinib -0.013 | pictilisib 0.004 | crizotinib -0.056 | [1] -0.014 | duvelisib 0.02 | gandotinib -0.064 | tozasertib 0.035 | doramapimod 0.028 | bafetinib -0.02 | [2] 0.01

HDLBP, A0A024R4E5
inactive: lapatinib 0.005 | pictilisib -0.017 | crizotinib -0.028 | [1] 0.002 | duvelisib -0.003 | gandotinib -0.03 | tozasertib 0.006 | doramapimod 0.018 | bafetinib -0.049 | [2] 0.013

HBG1 (UniProt P69891)
inactive: lapatinib 0.042 | pictilisib -0.033 | crizotinib 0.015 | [1] 0.065 | duvelisib 0.001 | gandotinib -0.023 | tozasertib -0.021 | doramapimod -0.006 | bafetinib -0.006 | [2] -0.026

HAUS5 (UniProt O94927)
inactive: lapatinib -0.036 | pictilisib -0.017 | crizotinib -0.071 | [1] 0.05 | duvelisib 0.044 | gandotinib -0.098 | tozasertib -0.002 | doramapimod 0.032 | bafetinib -0.042 | [2] -0.029

HBS1L isoform 2 (UniProt Q9Y450)
inactive: lapatinib 0.039 | pictilisib 0.043 | crizotinib -0.003 | [1] -0.04 | duvelisib 0.027 | gandotinib 0.035 | tozasertib 0.009 | doramapimod 0.02 | bafetinib -0.036 | [2] 0.053

GSPT1 isoform 3 (UniProt P15170)
inactive: lapatinib -0.002 | pictilisib 0.009 | crizotinib 0.033 | [1] -0.018 | duvelisib -0.013 | gandotinib 0.004 | tozasertib -0.01 | doramapimod -0.048 | bafetinib -0.005 | [2] -0.021

Two consecutive records out of the list so far, for reference:
HDLBP, A0A024R4E5
inactive: lapatinib 0.005 | pictilisib -0.017 | crizotinib -0.028 | [1] 0.002 | duvelisib -0.003 | gandotinib -0.03 | tozasertib 0.006 | doramapimod 0.018 | bafetinib -0.049 | [2] 0.013

HBG1 (UniProt P69891)
inactive: lapatinib 0.042 | pictilisib -0.033 | crizotinib 0.015 | [1] 0.065 | duvelisib 0.001 | gandotinib -0.023 | tozasertib -0.021 | doramapimod -0.006 | bafetinib -0.006 | [2] -0.026

More entries follow.

HDAC5 isoform 3 (UniProt Q9UQL6)
inactive: lapatinib -0.065 | pictilisib 0.013 | crizotinib -0.046 | [1] -0.062 | duvelisib 0.056 | gandotinib 0.008 | tozasertib 0.025 | doramapimod 0.038 | bafetinib -0.021 | [2] 0.005

HBZ (UniProt P02008)
inactive: lapatinib 0.086 | pictilisib 0.06 | crizotinib 0.009 | [1] 0.1 | duvelisib 0.032 | gandotinib -0.048 | tozasertib 0.028 | doramapimod 0.021 | bafetinib -0.028 | [2] -0.074

GYS1 (UniProt P13807)
inactive: lapatinib -0.046 | pictilisib -0.055 | crizotinib -0.002 | [1] -0.021 | duvelisib 0.007 | gandotinib -0.012 | tozasertib 0.105 | doramapimod -0.06 | bafetinib 0.036 | [2] -0.01

GXYLT1 (UniProt Q4G148)
inactive: lapatinib 0.087 | pictilisib -0.059 | crizotinib -0.018 | [1] -0.093 | duvelisib 0.166 | gandotinib 0.037 | tozasertib 0.004 | doramapimod 0.025 | bafetinib 0.058 | [2] 0.046

GRAP2 (UniProt O75791)
inactive: lapatinib 0 | pictilisib -0.08 | crizotinib -0.006 | [1] 0.101 | duvelisib -0.083 | gandotinib -0.046 | tozasertib 0.022 | doramapimod -0.013 | bafetinib 0.008 | [2] -0.011

HDAC6 (UniProt Q9UBN7)
inactive: lapatinib -0.019 | pictilisib -0.085 | crizotinib -0.039 | [1] 0.014 | duvelisib 0.065 | gandotinib -0.017 | tozasertib 0.002 | doramapimod 0.012 | bafetinib -0.069 | [2] -0.01

HACD3 (UniProt Q9P035)
inactive: lapatinib -0.067 | pictilisib -0.039 | crizotinib -0.032 | [1] -0.058 | duvelisib -0.009 | gandotinib -0.01 | tozasertib -0.008 | doramapimod -0.003 | bafetinib -0.088 | [2] 0.122
